Data as given in PMC7455142.

Sequences of proteins named here, by UniProt entry; tags and fusion partners are left off. A change or cut given only in a name is not applied to a line headed by its entry. A line that says so, or that is headed by a name, gives the form on record, which may keep a tag or linker.
UniProt P60953: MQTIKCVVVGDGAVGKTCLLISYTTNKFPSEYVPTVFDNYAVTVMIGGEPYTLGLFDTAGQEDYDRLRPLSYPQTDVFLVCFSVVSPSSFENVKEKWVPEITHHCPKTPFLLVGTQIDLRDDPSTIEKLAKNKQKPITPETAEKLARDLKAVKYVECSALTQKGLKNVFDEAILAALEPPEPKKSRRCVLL
3xFlag-tagged Cdc42 splice variant 2 (P60953, form named): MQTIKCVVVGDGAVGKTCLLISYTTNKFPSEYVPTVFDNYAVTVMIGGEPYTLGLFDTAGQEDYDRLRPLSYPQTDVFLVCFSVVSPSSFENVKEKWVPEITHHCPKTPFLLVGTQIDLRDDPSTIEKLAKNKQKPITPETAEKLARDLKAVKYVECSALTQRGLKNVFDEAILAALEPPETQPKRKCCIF
UniProt O96013: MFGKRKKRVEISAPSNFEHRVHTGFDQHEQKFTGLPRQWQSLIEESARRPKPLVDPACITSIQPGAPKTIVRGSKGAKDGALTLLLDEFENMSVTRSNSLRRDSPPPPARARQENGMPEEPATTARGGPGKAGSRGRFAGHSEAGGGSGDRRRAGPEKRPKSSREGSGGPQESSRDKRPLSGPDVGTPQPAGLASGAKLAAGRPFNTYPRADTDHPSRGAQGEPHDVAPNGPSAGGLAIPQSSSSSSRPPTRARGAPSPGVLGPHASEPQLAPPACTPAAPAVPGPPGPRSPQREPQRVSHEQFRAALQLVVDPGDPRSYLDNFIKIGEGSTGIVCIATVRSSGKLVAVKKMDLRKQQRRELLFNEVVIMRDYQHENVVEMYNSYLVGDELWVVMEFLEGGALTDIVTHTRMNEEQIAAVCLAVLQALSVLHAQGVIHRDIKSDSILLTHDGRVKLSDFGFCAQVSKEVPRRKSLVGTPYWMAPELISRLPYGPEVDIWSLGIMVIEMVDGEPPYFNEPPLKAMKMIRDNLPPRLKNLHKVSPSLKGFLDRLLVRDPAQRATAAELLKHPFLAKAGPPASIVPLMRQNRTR
UniProt P46940: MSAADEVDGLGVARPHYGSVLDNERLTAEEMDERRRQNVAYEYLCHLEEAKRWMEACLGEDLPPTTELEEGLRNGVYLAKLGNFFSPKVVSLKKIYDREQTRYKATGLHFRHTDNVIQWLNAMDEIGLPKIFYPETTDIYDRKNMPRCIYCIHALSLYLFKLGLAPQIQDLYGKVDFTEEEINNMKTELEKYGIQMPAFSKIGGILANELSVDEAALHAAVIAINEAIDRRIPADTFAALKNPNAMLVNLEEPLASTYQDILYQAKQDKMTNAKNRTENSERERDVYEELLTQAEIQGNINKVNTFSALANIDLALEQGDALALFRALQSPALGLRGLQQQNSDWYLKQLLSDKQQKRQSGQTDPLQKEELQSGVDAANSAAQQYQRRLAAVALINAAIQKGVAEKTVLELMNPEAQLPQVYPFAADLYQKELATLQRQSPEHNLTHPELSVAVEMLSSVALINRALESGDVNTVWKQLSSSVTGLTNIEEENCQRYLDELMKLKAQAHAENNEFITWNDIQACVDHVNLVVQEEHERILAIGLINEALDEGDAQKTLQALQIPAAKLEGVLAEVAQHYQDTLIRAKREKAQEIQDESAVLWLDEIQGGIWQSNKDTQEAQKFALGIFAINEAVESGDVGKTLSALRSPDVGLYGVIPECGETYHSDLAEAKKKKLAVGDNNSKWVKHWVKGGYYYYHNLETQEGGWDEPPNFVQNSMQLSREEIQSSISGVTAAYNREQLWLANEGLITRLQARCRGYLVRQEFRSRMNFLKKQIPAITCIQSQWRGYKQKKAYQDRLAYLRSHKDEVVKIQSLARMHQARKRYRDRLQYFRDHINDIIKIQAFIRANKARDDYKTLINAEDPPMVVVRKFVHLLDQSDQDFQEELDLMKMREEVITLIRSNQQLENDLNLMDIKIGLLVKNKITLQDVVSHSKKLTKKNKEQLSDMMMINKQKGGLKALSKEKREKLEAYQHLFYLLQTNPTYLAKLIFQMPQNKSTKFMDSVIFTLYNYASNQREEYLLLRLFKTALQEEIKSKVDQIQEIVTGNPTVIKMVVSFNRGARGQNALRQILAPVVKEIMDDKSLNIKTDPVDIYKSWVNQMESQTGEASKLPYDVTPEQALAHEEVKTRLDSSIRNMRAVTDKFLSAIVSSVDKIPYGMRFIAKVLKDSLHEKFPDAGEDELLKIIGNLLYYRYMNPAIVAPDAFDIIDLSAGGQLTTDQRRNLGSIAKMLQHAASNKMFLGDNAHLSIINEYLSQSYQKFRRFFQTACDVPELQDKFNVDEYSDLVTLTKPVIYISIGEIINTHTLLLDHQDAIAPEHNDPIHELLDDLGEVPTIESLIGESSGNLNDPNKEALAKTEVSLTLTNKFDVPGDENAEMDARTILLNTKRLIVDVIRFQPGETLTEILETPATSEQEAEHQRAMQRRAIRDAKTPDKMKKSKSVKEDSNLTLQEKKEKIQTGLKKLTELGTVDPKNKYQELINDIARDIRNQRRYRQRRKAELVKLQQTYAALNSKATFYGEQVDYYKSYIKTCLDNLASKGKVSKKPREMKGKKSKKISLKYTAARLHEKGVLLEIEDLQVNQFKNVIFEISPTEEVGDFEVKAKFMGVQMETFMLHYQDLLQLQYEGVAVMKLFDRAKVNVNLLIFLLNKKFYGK
UniProt Q86VI3: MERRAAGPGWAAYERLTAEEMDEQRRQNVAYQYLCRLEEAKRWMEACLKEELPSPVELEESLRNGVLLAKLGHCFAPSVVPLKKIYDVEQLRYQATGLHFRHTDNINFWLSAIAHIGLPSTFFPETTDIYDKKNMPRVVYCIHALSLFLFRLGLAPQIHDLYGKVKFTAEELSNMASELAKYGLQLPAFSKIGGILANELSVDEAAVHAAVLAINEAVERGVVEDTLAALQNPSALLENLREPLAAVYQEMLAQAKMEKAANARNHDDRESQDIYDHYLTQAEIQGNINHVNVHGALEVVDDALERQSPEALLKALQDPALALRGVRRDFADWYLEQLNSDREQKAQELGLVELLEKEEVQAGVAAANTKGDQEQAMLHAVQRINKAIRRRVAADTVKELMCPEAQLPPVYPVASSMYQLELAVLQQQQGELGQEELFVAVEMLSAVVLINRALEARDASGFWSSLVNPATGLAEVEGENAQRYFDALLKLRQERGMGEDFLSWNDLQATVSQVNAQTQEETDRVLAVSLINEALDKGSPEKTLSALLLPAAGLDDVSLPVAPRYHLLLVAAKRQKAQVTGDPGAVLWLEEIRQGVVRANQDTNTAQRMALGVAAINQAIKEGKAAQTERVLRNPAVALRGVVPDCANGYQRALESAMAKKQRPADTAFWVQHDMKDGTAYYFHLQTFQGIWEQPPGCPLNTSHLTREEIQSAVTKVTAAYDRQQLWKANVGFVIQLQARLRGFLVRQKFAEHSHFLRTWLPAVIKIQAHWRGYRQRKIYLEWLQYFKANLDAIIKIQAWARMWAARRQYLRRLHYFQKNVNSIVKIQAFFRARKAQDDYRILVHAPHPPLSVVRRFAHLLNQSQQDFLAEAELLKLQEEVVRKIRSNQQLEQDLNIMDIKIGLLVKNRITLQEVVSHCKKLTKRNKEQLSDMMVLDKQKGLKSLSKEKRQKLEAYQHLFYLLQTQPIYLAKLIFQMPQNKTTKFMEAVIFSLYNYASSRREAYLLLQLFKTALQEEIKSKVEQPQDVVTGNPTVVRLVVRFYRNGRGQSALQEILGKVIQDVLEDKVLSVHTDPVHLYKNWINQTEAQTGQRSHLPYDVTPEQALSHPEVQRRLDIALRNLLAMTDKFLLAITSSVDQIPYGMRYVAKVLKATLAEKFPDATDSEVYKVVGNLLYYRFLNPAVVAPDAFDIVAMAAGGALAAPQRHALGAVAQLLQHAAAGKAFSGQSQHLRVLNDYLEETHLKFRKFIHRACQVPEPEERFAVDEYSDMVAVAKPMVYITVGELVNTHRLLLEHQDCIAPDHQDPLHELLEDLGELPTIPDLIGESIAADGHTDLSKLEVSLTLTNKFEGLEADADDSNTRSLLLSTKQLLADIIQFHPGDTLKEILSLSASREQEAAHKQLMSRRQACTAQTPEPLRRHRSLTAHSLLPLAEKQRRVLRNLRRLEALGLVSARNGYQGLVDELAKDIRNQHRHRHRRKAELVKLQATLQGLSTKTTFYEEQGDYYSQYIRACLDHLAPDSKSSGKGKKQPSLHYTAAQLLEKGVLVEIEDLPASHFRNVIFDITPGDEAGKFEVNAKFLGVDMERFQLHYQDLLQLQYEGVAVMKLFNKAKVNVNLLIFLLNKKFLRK

Key:
[1] = biological target: 3xFlag-tagged Cdc42 splice variant 2 (UniProt P60953); test: affinity purification with mass spectrometry; HEK293 cells transfected with pQCXIP-3×Flag-Cdc42-V1 or -V2 (empty vector as control); lysates immunoprecipitated with a Flag antibody; gel bands cut for mass spectrometry
[2] = biological target: 3xFlag-tagged Cdc42 variant 1 (canonical Cdc42) (UniProt P60953); test: as above

Molecule: PAK4 (from UniProt O96013 1-591) (enzyme)
binding [2]: binds | binding [1]: binds

B1: MAPK kinase kinase 7 (enzyme, UniProt O43318 1-606)
chain: MSTASAASSSSSSSAGEMIEAPSQVLNFEEIDYKEIEVEEVVGRGAFGVVCKAKWRAKDVAIKQIESESERKAFIVELRQLSRVNHPNIVKLYGACLNPVCLVMEYAEGGSLYNVLHGAEPLPYYTAAHAMSWCLQCSQGVAYLHSMQPKALIHRDLKPPNLLLVAGGTVLKICDFGTACDIQTHMTNNKGSAAWMAPEVFEGSNYSEKCDVFSWGIILWEVITRRKPFDEIGGPAFRIMWAVHNGTRPPLIKNLPKPIESLMTRCWSKDPSQRPSMEEIVKIMTHLMRYFPGADEPLQYPCQYSDEGQSNSATSTGSFMDIASTNTSNKSDTNMEQVPATNDTIKRLESKLLKNQAKQQSESGRLSLGASRGSSVESLPPTSEGKRMSADMSEIEARIAATTAYSKPKRGHRKTASFGNILDVPEIVISGNGQPRRRSIQDLTVTGTEPGQVSSRSSSPSVRMITTSGPTSEKPTRSHPWTPDDSTDTNGSDNSIPMAYLTLDHQLQPLAPCPNSKESMAVFEQHCKMAQEYMKVQTEIALLLQRKQELVAELDQDEKDQQNTSRLVQEHKKLLDENKSLSTYYQQCKKQLEVIRSQQQKRQGTS
binding [2]: binds | binding [1]: binds

Further lines, results first:

binding [1]: binds
Molecule: IQGAP1 (from UniProt P46940 1-1657)

binding [2]: binds | binding [1]: binds
Molecule: IQGAP3 (from UniProt Q86VI3 1-1631)

These are yes or no findings as the source states them, for the method shown. Binding seen in cells or lysates may run through a third protein. These calls come from enrichment with a bait or labelling near it, and not all partners need be listed. Each block holds one molecule with its values, some of them ahead of it.
